# Source: the supplement of paper PMC12823440, “Inhibitors supercharge kinase turnover through native proteolytic circuits” (Nature, 2025)
# The chains behind the UniProt entries cited, without tags or fusion partners. Where a name states a change or a piece, a line headed by the entry shows the natural chain unless it says otherwise.
# UniProt O75460: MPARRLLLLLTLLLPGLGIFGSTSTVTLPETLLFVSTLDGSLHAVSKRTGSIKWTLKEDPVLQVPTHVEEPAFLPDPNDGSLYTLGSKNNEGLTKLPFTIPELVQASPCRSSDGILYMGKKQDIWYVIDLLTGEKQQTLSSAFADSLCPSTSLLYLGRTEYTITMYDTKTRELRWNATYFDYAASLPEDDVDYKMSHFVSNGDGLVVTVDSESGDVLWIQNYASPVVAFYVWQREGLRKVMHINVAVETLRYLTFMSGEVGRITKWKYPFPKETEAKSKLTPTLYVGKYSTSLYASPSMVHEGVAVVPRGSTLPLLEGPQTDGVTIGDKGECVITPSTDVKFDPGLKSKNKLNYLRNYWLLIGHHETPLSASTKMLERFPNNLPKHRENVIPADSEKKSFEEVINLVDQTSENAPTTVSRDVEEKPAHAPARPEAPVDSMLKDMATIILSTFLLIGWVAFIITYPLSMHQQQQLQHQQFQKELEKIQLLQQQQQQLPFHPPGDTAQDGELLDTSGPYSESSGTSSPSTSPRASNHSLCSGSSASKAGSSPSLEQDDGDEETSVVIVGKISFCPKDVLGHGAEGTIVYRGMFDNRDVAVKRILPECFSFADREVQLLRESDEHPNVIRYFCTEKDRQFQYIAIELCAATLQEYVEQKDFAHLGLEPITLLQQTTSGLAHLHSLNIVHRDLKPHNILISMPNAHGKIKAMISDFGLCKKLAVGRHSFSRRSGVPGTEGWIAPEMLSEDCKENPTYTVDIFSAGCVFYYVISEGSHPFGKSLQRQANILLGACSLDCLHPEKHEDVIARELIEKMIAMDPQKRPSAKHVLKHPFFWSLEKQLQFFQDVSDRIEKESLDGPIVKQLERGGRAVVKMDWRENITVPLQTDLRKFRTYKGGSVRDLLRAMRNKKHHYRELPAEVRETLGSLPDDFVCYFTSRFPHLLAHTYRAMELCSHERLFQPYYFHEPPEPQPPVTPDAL
# UniProt P06241, whole entry, looked up: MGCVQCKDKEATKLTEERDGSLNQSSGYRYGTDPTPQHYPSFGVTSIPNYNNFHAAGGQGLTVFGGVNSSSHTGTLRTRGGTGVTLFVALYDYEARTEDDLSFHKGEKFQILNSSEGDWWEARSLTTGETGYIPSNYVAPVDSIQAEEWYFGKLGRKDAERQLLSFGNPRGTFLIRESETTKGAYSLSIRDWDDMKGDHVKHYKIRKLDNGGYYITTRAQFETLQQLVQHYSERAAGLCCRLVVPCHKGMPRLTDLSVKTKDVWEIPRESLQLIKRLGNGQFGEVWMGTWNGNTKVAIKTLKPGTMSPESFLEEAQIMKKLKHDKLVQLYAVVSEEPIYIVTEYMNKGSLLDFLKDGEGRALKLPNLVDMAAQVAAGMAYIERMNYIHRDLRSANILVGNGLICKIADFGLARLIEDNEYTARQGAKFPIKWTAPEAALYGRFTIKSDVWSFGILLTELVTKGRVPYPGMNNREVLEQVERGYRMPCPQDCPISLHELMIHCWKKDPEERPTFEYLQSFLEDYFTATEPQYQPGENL
# UniProt P49840: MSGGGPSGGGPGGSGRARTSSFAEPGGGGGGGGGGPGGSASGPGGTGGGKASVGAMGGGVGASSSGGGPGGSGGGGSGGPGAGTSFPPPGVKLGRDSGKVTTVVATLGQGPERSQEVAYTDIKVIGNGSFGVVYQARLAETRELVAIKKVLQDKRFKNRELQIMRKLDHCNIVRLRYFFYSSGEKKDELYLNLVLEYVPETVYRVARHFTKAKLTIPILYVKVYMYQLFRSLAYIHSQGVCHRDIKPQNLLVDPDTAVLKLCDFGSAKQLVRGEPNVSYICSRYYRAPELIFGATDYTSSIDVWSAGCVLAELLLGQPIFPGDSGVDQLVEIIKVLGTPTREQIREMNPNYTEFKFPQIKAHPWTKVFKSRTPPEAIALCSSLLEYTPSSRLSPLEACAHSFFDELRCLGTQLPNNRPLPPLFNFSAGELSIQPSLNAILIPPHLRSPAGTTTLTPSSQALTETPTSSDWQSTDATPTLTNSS
# UniProt P23458: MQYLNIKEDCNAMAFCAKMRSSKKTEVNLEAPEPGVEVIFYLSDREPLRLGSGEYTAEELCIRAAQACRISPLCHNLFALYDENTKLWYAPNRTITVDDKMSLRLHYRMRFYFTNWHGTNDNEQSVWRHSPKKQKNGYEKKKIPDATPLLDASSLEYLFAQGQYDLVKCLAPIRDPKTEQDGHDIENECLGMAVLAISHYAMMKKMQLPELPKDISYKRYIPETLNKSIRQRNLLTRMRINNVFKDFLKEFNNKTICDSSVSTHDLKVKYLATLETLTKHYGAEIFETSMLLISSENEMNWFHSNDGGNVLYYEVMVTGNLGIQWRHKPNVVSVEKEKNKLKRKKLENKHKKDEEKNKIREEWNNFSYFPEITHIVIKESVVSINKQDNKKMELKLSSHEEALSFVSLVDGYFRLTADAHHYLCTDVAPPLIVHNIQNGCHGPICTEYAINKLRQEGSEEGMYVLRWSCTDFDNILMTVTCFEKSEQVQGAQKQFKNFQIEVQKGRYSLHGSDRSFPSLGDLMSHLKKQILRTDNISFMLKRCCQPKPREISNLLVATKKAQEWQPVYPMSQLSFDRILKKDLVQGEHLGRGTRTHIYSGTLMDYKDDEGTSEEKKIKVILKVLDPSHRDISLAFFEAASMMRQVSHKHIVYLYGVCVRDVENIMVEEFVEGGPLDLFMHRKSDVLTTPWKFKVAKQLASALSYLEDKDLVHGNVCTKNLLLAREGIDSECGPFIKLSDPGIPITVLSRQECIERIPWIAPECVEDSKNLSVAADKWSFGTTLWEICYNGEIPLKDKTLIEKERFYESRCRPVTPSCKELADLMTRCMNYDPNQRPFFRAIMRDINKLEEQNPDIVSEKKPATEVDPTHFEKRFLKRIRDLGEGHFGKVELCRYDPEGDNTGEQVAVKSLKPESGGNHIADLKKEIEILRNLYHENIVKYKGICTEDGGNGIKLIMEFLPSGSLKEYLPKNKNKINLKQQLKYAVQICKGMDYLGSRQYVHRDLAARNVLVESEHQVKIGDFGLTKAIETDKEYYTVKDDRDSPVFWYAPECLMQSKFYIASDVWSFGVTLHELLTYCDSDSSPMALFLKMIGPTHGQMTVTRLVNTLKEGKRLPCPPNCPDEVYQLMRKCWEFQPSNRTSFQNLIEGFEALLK
# UniProt P06239: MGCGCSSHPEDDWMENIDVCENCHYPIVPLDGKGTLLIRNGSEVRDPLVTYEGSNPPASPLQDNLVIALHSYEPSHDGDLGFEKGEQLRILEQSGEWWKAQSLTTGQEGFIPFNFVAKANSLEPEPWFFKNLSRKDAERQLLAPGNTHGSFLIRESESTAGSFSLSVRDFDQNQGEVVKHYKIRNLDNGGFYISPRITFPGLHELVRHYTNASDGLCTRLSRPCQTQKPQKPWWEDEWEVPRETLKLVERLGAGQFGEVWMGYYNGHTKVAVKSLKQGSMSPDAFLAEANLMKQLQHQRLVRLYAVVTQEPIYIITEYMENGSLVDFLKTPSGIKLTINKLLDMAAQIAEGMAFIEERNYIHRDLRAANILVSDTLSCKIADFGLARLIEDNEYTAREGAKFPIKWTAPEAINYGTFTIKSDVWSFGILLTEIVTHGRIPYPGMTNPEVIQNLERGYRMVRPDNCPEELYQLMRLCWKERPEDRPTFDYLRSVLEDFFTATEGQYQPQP
# UniProt P53667: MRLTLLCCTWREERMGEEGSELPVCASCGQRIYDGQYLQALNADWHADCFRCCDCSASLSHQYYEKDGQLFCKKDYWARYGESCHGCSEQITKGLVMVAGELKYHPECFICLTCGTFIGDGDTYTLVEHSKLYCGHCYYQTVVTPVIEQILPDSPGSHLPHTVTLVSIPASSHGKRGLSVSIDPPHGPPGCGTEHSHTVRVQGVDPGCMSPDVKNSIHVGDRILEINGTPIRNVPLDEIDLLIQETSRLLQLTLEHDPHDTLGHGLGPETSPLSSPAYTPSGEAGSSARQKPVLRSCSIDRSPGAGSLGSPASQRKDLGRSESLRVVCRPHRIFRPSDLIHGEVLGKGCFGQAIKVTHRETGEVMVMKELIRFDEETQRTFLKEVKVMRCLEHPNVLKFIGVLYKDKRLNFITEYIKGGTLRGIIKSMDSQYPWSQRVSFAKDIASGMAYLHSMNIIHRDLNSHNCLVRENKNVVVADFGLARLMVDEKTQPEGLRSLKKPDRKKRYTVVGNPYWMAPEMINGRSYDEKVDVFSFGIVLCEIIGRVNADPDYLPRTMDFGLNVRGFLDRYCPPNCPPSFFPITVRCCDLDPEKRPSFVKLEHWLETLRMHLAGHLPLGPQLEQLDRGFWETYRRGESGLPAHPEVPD
# UniProt P53671: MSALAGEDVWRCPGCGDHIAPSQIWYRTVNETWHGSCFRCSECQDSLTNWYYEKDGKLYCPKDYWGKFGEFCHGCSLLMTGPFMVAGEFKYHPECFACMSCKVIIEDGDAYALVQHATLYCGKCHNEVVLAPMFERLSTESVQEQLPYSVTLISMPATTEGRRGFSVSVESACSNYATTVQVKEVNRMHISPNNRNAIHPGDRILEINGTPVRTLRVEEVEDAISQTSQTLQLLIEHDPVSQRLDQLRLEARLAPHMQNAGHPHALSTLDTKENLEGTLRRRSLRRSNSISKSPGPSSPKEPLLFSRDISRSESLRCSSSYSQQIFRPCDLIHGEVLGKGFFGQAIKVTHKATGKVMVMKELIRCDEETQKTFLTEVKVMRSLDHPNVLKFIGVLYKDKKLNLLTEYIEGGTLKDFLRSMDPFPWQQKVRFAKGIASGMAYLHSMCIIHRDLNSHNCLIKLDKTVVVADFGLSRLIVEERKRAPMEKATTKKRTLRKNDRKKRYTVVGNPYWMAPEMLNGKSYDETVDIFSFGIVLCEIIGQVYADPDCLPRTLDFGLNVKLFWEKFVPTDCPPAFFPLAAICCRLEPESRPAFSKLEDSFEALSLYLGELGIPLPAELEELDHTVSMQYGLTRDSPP
# UniProt Q8IWU2: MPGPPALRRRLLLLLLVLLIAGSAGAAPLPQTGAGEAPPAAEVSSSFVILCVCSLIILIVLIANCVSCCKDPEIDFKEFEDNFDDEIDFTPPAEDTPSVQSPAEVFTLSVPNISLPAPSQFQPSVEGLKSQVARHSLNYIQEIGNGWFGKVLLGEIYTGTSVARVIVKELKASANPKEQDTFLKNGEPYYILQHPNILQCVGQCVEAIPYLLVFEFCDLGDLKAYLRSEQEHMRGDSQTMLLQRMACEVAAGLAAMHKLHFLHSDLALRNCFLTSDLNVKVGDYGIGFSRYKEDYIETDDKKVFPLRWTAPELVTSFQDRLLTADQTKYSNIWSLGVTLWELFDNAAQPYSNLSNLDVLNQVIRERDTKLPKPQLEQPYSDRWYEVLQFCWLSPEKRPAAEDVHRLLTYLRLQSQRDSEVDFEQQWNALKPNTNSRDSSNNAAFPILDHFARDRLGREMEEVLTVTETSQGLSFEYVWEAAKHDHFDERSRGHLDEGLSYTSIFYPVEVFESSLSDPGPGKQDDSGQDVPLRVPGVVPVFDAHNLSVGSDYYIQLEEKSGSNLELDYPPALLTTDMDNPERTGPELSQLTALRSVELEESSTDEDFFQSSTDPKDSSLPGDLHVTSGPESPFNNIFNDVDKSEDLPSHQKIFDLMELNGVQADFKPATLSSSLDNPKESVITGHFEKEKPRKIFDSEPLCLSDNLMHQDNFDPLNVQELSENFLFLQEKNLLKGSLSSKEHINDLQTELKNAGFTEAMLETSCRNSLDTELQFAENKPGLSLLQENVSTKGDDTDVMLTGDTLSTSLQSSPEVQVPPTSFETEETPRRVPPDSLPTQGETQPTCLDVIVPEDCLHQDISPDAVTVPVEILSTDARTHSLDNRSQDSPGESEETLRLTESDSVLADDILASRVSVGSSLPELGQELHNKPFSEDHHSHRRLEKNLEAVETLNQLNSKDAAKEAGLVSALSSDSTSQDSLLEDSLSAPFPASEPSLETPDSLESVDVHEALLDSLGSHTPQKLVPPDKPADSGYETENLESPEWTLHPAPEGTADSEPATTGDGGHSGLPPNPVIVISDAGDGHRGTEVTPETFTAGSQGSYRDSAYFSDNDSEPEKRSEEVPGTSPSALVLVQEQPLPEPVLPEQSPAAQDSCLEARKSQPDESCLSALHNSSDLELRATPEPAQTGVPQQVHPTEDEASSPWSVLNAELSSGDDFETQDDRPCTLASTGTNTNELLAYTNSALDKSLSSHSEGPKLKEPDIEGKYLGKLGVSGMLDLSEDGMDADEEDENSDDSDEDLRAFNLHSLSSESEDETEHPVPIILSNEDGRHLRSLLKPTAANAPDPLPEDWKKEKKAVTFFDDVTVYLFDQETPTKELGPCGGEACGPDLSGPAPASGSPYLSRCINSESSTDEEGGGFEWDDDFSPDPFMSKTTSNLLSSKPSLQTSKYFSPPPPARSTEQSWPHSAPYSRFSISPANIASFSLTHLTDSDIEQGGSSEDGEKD
# Counter-ions that a name gives are not always drawn. The list shows a part of the results. The calls rarely recur for the same compound in another form.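 Kinases were expressed as nanoluciferase fusions in K562 cells and luminescence was read every 4 h between 2 and 18 h as percent of control, DMSO set to 100% and a positive control to 0%. A time point counts as decreased when the signal drops significantly (2 sigma). The hit call is the authors' own, does not follow from the count of time points alone, and its rule is not shown.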
# Assays:
# Experiment in all cases: kinase-Nluc reporter destabilization hit call (1 = scored as downregulated) (binary); higher = compound decreases kinase abundance
# Conditions in all cases: K562, 2-18 h
# [1] = target: ERN1 (UniProt O75460)
# [2] = target: FGFR1 (UniProt P11362)
# [3] = target: FGFR2 (UniProt P21802)
# [4] = target: FGFR3 (UniProt P22607)
# [5] = target: FGR (UniProt P09769)
# [6] = target: FLT3 (UniProt P36888)
# [7] = target: FYN (UniProt P06241)
# [8] = target: GSK3A (UniProt P49840)
# [9] = target: HER2 (UniProt P04626)
# [10] = target: INSRR (UniProt P14616)
# [11] = target: IRAK3 (UniProt Q9Y616)
# [12] = target: JAK1 (UniProt P23458)
# [13] = target: LCK (UniProt P06239)
# [14] = target: LIMK1 (UniProt P53667)
# [15] = target: LIMK2 (UniProt P53671)
# [16] = target: LMTK2 (UniProt Q8IWU2)
# [17] = target: LYN (UniProt P07948)
# [18] = target: MAP2K1 (UniProt Q02750)
# [19] = target: MAP2K2 (UniProt P36507)
# [20] = target: MAP4K2 (UniProt Q12851)
SMILES,kinase-Nluc reporter destabilization hit call ([1]; 10 µM),kinase-Nluc reporter destabilization hit call ([2]; 10 µM),kinase-Nluc reporter destabilization hit call ([3]; 10 µM),kinase-Nluc reporter destabilization hit call ([4]; 10 µM),kinase-Nluc reporter destabilization hit call ([5]; 10 µM),kinase-Nluc reporter destabilization hit call ([6]; 10 µM),kinase-Nluc reporter destabilization hit call ([7]; 10 µM),kinase-Nluc reporter destabilization hit call ([8]; 10 µM),kinase-Nluc reporter destabilization hit call ([9]; 10 µM),kinase-Nluc reporter destabilization hit call ([10]; 10 µM),kinase-Nluc reporter destabilization hit call ([11]; 10 µM),kinase-Nluc reporter destabilization hit call ([12]; 10 µM),kinase-Nluc reporter destabilization hit call ([13]; 10 µM),kinase-Nluc reporter destabilization hit call ([14]; 10 µM),kinase-Nluc reporter destabilization hit call ([15]; 10 µM),kinase-Nluc reporter destabilization hit call ([16]; 10 µM),kinase-Nluc reporter destabilization hit call ([17]; 10 µM),kinase-Nluc reporter destabilization hit call ([18]; 10 µM),kinase-Nluc reporter destabilization hit call ([19]; 10 µM),kinase-Nluc reporter destabilization hit call ([20]; 10 µM),kinase-Nluc reporter destabilization hit call ([1]; 2.5 µM),kinase-Nluc reporter destabilization hit call ([2]; 2.5 µM),kinase-Nluc reporter destabilization hit call ([3]; 2.5 µM),kinase-Nluc reporter destabilization hit call ([4]; 2.5 µM),kinase-Nluc reporter destabilization hit call ([5]; 2.5 µM),kinase-Nluc reporter destabilization hit call ([6]; 2.5 µM),kinase-Nluc reporter destabilization hit call ([7]; 2.5 µM),kinase-Nluc reporter destabilization hit call ([8]; 2.5 µM),kinase-Nluc reporter destabilization hit call ([9]; 2.5 µM),kinase-Nluc reporter destabilization hit call ([10]; 2.5 µM),kinase-Nluc reporter destabilization hit call ([11]; 2.5 µM),kinase-Nluc reporter destabilization hit call ([12]; 2.5 µM),kinase-Nluc reporter destabilization hit call ([13]; 2.5 µM),kinase-Nluc reporter destabilization hit call ([14]; 2.5 µM),kinase-Nluc reporter destabilization hit call ([15]; 2.5 µM),kinase-Nluc reporter destabilization hit call ([16]; 2.5 µM),kinase-Nluc reporter destabilization hit call ([17]; 2.5 µM),kinase-Nluc reporter destabilization hit call ([18]; 2.5 µM),kinase-Nluc reporter destabilization hit call ([19]; 2.5 µM),kinase-Nluc reporter destabilization hit call ([20]; 2.5 µM)
O=C(O)c1ccc2c(c1)nc(Nc1cccc(Cl)c1)c1ccncc12 [Silmitasertib (sodium salt)],inactive: 0,inactive: 0,inactive: 0,inactive: 0,inactive: 0,inactive: 0,inactive: 0,inactive: 0,inactive: 0,inactive: 0,inactive: 0,inactive: 0,inactive: 0,inactive: 0,inactive: 0,inactive: 0,inactive: 0,inactive: 0,inactive: 0,inactive: 0,,,,,,,,,,,,,,,,,,,,
C=CC(=O)Nc1cc(Nc2nccc(-c3cn(C)c4ccccc34)n2)c(OC)cc1N(C)CCN(C)C [Osimertinib (dimesylate)],,,,,,,,,,,,,,,,,,,,,inactive: 0,inactive: 0,inactive: 0,inactive: 0,inactive: 0,inactive: 0,inactive: 0,inactive: 0,active: 1,inactive: 0,inactive: 0,inactive: 0,inactive: 0,inactive: 0,inactive: 0,inactive: 0,inactive: 0,inactive: 0,inactive: 0,inactive: 0
C#Cc1cccc(Nc2ncnc3cc4c(cc23)OCCOCCOCCO4)c1 [Icotinib],inactive: 0,inactive: 0,inactive: 0,inactive: 0,inactive: 0,inactive: 0,inactive: 0,inactive: 0,inactive: 0,inactive: 0,inactive: 0,inactive: 0,inactive: 0,inactive: 0,inactive: 0,inactive: 0,inactive: 0,inactive: 0,inactive: 0,inactive: 0,,,,,,,,,,,,,,,,,,,,
Clc1ccc(C2(c3ccc(-c4cn[nH]c4)cc3)CCNCC2)cc1,inactive: 0,inactive: 0,inactive: 0,inactive: 0,inactive: 0,inactive: 0,inactive: 0,inactive: 0,inactive: 0,inactive: 0,inactive: 0,inactive: 0,inactive: 0,inactive: 0,inactive: 0,inactive: 0,inactive: 0,inactive: 0,inactive: 0,inactive: 0,,,,,,,,,,,,,,,,,,,,
C[S+]([O-])c1ccc(-c2nc(-c3ccc(F)cc3)c(-c3ccncc3)[nH]2)cc1 (stereo not given),inactive: 0,inactive: 0,inactive: 0,inactive: 0,inactive: 0,inactive: 0,inactive: 0,inactive: 0,inactive: 0,inactive: 0,inactive: 0,inactive: 0,inactive: 0,inactive: 0,inactive: 0,inactive: 0,inactive: 0,inactive: 0,inactive: 0,inactive: 0,,,,,,,,,,,,,,,,,,,,
O=C1Nc2ccccc2/C1=C/c1ccccn1 [GSK-3β inhibitor 1],inactive: 0,inactive: 0,inactive: 0,inactive: 0,inactive: 0,inactive: 0,inactive: 0,inactive: 0,inactive: 0,inactive: 0,inactive: 0,inactive: 0,inactive: 0,inactive: 0,inactive: 0,inactive: 0,inactive: 0,inactive: 0,inactive: 0,inactive: 0,,,,,,,,,,,,,,,,,,,,
O=C(c1nn(-c2ccc(CN3CCOCC3)cc2)c2c1CS(=O)(=O)c1c(F)cccc1-2)N1CCOCC1,inactive: 0,inactive: 0,inactive: 0,inactive: 0,inactive: 0,inactive: 0,inactive: 0,inactive: 0,inactive: 0,inactive: 0,inactive: 0,inactive: 0,inactive: 0,inactive: 0,inactive: 0,inactive: 0,inactive: 0,inactive: 0,inactive: 0,inactive: 0,,,,,,,,,,,,,,,,,,,,
COc1ccc(S(=O)(=O)N(CCO)c2ccccc2CN(C)C/C=C/c2ccc(Cl)cc2)cc1 [KN-93 (phosphate)],,,,,,,,,,,,,,,,,,,,,inactive: 0,inactive: 0,inactive: 0,inactive: 0,inactive: 0,inactive: 0,inactive: 0,inactive: 0,inactive: 0,inactive: 0,inactive: 0,inactive: 0,inactive: 0,inactive: 0,inactive: 0,inactive: 0,inactive: 0,inactive: 0,inactive: 0,inactive: 0
CNC(=O)c1ccc(Nc2ncc(C(F)(F)F)c(NCc3nccnc3N(C)S(C)(=O)=O)n2)cc1 [Defactinib (hydrochloride)],inactive: 0,inactive: 0,inactive: 0,inactive: 0,inactive: 0,inactive: 0,inactive: 0,inactive: 0,inactive: 0,inactive: 0,inactive: 0,inactive: 0,inactive: 0,inactive: 0,inactive: 0,inactive: 0,inactive: 0,inactive: 0,inactive: 0,inactive: 0,,,,,,,,,,,,,,,,,,,,
COc1cc(/C=C/C(=O)O)ccc1O [Ferulic acid (sodium)],inactive: 0,inactive: 0,inactive: 0,inactive: 0,inactive: 0,inactive: 0,inactive: 0,inactive: 0,inactive: 0,inactive: 0,inactive: 0,inactive: 0,inactive: 0,inactive: 0,inactive: 0,inactive: 0,inactive: 0,inactive: 0,inactive: 0,inactive: 0,,,,,,,,,,,,,,,,,,,,
CC(=O)N[C@H](Cc1ccc(O)cc1)C(=O)N[C@H](CCCN=C(N)N)C(=O)N[C@H](Cc1ccccc1)C(N)=O,inactive: 0,inactive: 0,inactive: 0,inactive: 0,inactive: 0,inactive: 0,inactive: 0,inactive: 0,inactive: 0,inactive: 0,inactive: 0,inactive: 0,inactive: 0,inactive: 0,inactive: 0,inactive: 0,inactive: 0,inactive: 0,inactive: 0,inactive: 0,,,,,,,,,,,,,,,,,,,,
COc1ccc(S(=O)(=O)N(CCO)c2ccccc2CN(C)C/C=C/c2ccc(Cl)cc2)cc1 [KN-93 (hydrochloride)],,,,,,,,,,,,,,,,,,,,,inactive: 0,inactive: 0,inactive: 0,inactive: 0,inactive: 0,inactive: 0,inactive: 0,inactive: 0,inactive: 0,inactive: 0,inactive: 0,inactive: 0,inactive: 0,inactive: 0,inactive: 0,inactive: 0,inactive: 0,inactive: 0,inactive: 0,inactive: 0
COc1cc2c(-c3cnn4cc(N5CCC(N6CCN(C)CC6)CC5)cnc34)ccnc2cc1F,inactive: 0,inactive: 0,inactive: 0,inactive: 0,inactive: 0,inactive: 0,inactive: 0,inactive: 0,inactive: 0,inactive: 0,inactive: 0,inactive: 0,inactive: 0,inactive: 0,inactive: 0,inactive: 0,inactive: 0,inactive: 0,inactive: 0,inactive: 0,,,,,,,,,,,,,,,,,,,,
COc1cc2c(Oc3ccc4[nH]c(C)cc4c3F)ncnc2cc1OCCCN1CCCC1 [Cediranib],,,,,,,,,,,,,,,,,,,,,inactive: 0,inactive: 0,inactive: 0,inactive: 0,inactive: 0,inactive: 0,inactive: 0,inactive: 0,inactive: 0,inactive: 0,inactive: 0,inactive: 0,inactive: 0,inactive: 0,inactive: 0,inactive: 0,inactive: 0,inactive: 0,inactive: 0,inactive: 0
COC(=O)[C@H](CC(C)C)NC(=O)c1ccc(NC[C@@H](N)CS)cc1-c1cccc2ccccc12,inactive: 0,inactive: 0,inactive: 0,inactive: 0,inactive: 0,inactive: 0,inactive: 0,inactive: 0,inactive: 0,inactive: 0,inactive: 0,inactive: 0,inactive: 0,inactive: 0,inactive: 0,inactive: 0,inactive: 0,inactive: 0,inactive: 0,inactive: 0,,,,,,,,,,,,,,,,,,,,
CN1CCCN(C(=O)c2cccc(-c3ccc(/C=C4/C(=O)Nc5ccc(Cl)cc54)o3)c2)CC1 [CX-6258 (hydrochloride hydrate)],,,,,,,,,,,,,,,,,,,,,inactive: 0,inactive: 0,inactive: 0,inactive: 0,inactive: 0,inactive: 0,inactive: 0,inactive: 0,inactive: 0,inactive: 0,inactive: 0,inactive: 0,inactive: 0,inactive: 0,inactive: 0,inactive: 0,inactive: 0,inactive: 0,inactive: 0,inactive: 0
Cc1ccc(NC(=O)c2ccc(CN3CCN(C)CC3)cc2)cc1Nc1nc(-c2cccnc2)cs1 [Masitinib (mesylate)],,,,,,,,,,,,,,,,,,,,,inactive: 0,inactive: 0,inactive: 0,inactive: 0,inactive: 0,inactive: 0,inactive: 0,inactive: 0,inactive: 0,inactive: 0,inactive: 0,inactive: 0,inactive: 0,inactive: 0,inactive: 0,inactive: 0,inactive: 0,inactive: 0,inactive: 0,inactive: 0

# Single entries from the results shown.
# Value of O=C1Nc2ccccc2/C1=C/c1ccccn1 [GSK-3β inhibitor 1] under kinase-Nluc reporter destabilization hit call ([16]; 10 µM): inactive: 0
# Value of COc1cc2c(Oc3ccc4[nH]c(C)cc4c3F)ncnc2cc1OCCCN1CCCC1 [Cediranib] under kinase-Nluc reporter destabilization hit call ([6]; 2.5 µM): inactive: 0
